Here are results for 24 compounds from the supplement of paper PMC8426693.

The list shows a part of the results. Single values are uncertain, as repeats are few or missing.

The experiment relates to SARS-CoV-2 3'-UTR RNA. The experiment can be described thus: T2 signal reduction relative to ligand without RNA (fraction); higher = stronger binding. To be noted: RNA concentration 10 µM; fragment concentration 200 µM; 293 K.
`c1cnc(N2CCC3(CCOC3)C2)cn1` (centres undefined) gave a T2 signal reduction of 0.24.

The compound `N#Cc1ccc(NC(=O)c2cccs2)cc1` displayed a T2 signal reduction of 0.75.

`c1ccc(CCNc2nc3ccccc3[nH]2)cc1` gave a T2 signal reduction of 0.48.

The compound `COc1ccc(NC(=O)Nc2cccs2)cn1` displayed a T2 signal reduction of 0.33.

Compound `O=C(OCc1ccc(Cl)cc1)c1cccnc1` came in with a T2 signal reduction of 0.23.

With `COc1ccc(Nc2ncnc3[nH]cnc23)cc1`, the T2 signal reduction was 0.46.

`Oc1ccc(CN2CCCC2)c2cccnc12`: the T2 signal reduction was found to be 0.34.

The compound `Cc1ccc(Nc2ncnc3[nH]ncc23)cc1` had a T2 signal reduction of 0.58.

For `Cc1sc2ncnc(N(C)C)c2c1C`, the T2 signal reduction stood at 0.64.

Turning to `Cc1cc(C(=O)Nc2ccc3[nH]ccc3c2)no1`, the T2 signal reduction was 0.31.

Compound `COc1ccc2sc(N)nc2c1` returned a T2 signal reduction of 0.49.

The compound `CC(=O)Nc1ccc(-c2csc(N)n2)cc1` gave a T2 signal reduction of 0.5.

For the compound `CC(N)c1ccc(-c2cncnc2)cc1` (centres undefined), the T2 signal reduction stood at 0.16.

`CNC(=O)c1nc2ccccc2c(=O)[nH]1`: the T2 signal reduction was 0.51.

In the case of `COc1ccc(C(=O)Nc2ccccc2F)cc1`, the T2 signal reduction was determined as 0.27.

In the case of `O=C(Nc1ccc2[nH]c(=O)[nH]c2c1)c1ccco1`, the T2 signal reduction is 0.43.

`O=C(Nc1cccnc1)c1cnn2cccnc12` yielded a T2 signal reduction of 0.31.

Take `CC(C)c1ccc(C(=O)Nc2nncs2)cc1`: the T2 signal reduction stood at 0.5.

`CNCC(=O)Nc1cc(C)ccn1` had a T2 signal reduction of 0.33.

In turn, `CC(=O)Nc1ccncc1C` yielded a T2 signal reduction of 0.01.

`OCc1ccc(-n2cnc3ccccc32)cc1` came in with a T2 signal reduction of 0.2.

Compound `O=C(Nc1ccc(O)cc1)c1ccc(Cl)cc1` registered a T2 signal reduction of 0.44.

`CNc1nccc(OC)n1` yielded a T2 signal reduction of 0.54.

The compound `Cc1cc2ncn(CC(N)=O)c2cc1C` returned a T2 signal reduction of 0.21.
